This assay concerns the target EZH2 (endogenous, mouse lung tumors) (mouse (endogenous in conditional KRAS-G12D mouse lung tumors)) (UniProt Q61188). Kind of assay: co-IP; lung tumor extracts of the conditional KRAS-G12D mouse; IP with EZH2 or mock IgG antibodies, IB with DLC1 antibodies.

Amino acid sequences for entries named in this document (tags omitted). A change or cut given only in a name is not applied to a line headed by its entry.
UniProt Q61188: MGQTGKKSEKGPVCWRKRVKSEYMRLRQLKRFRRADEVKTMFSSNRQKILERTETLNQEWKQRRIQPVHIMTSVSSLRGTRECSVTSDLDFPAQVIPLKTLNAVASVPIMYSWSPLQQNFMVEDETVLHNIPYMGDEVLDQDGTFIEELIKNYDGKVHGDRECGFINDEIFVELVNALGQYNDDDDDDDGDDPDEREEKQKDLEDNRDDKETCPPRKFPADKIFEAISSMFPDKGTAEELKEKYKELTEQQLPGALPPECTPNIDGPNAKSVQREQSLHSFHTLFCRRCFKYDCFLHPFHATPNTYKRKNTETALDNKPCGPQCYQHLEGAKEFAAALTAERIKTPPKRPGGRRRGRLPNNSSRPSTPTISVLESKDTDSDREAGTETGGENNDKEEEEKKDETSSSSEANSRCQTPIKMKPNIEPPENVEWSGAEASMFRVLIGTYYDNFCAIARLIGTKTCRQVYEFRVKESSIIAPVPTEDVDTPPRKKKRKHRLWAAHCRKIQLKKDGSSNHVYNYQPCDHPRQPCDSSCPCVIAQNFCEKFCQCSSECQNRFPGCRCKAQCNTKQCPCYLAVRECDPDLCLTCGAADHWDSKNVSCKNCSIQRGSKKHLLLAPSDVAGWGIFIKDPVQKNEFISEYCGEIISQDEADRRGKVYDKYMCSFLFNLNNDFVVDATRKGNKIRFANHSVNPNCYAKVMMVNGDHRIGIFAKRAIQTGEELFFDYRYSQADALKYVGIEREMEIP

No constants are given. Whether binding was seen depends on the method and setting. Binding seen in cells or lysates may run through a third protein. Some results given as binding are weak or reduced against the parent protein; the word gives no strength.

B1: DLC1 (endogenous, mouse lung tumors) (protein, UniProt Q9R0Z9 1-1092)
chain: MCRDEPDTMILTQIEAKEACDWLRVTGFPQYAQLYEDLLFPVDIALVKREHDFLDRDAIEALCRRLNTLNKCAVMKLEISPHRKRSEDSDEDEPCAISGKWTFQRDSKRWSRLEEFDVFFPKQDPIPGSPDNSRLQSATSHESMLTDLSEHQEVASVRSLSSTSSSVPTHAAHSGDATTPRTNSVISVCSSGHFVGNDDSFSSLPSPKELSSFSFSMKGHHEKNTKSKTRSLLKRMESLKLKGSHHSKHKAPSKLGLIISAPILQEGMDEAKLKQLNCVEISALNGNHINVPMVRKRSVSNSTQTSSSSSQSETSSAVSTPSPVTRTRSLSTCNKRVGMYLEGFDPFSQSTLNNVTEQNYKNRESYPEDTVFYIPEDHKPGTFPKALSHGSFCPSGNSSVNWRTGSFHGPGHLSLRRENSHDSPKELKRRNSSSSLSSRLSIYDNVPGSILYSSSGELADLENEDIFPELDDILYHVKGMQRIVNQWSEKFSDEGDSDSALDSVSPCPSSPKQIHLDVDHDRRTPSDLDSTGNSLNEPEEPTDIPERRDSGVGASLTRCNRHRLRWHSFQSSHRPSLNSVSLQINCQSVAQMNLLQKYSLLKLTALLEKYTPSNKHGFSWAVPKFMKRIKVPDYKDRSVFGVPLTVNVQRSGQPLPQSIQQAMRYLRNHCLDQVGLFRKSGVKSRIQALRQMNESAEDNVNYEGQSAYDVADMLKQYFRDLPEPLMTNKLSETFLQIYQYVPKDQRLQAIKAAIMLLPDENREVLQTLLYFLSDVTAAVKENQMTPTNLAVCLAPSLFHLNTLKRENSSPRVMQRKQSLGKPDQKDLNENLAATQGLAHMIAECKKLFQVPEEMSRCRNSYTEQELKPLTLEALGHLNSDQPADYRHFLQDCVDGLFKEVKEKFKGWVSYPTSEQADLSYKKVSEGPPLRLWRSTIEVPAAPEEILKRLLKEQHLWDVDLLDSKVIEILDSQTEIYQYVQNSMAPHPARDYVVLRTWRTNLPRGACALLLTSVDHDRAPVAGVRVNVLLSRYLIEPCGSGKSKLTYMCRADLRGHMPEWYSKSFGHLCAAEVVKIRDSFSNQNTESKDTRSR
As to B1, the binding result is listed as “binds”.

For the origin of these results see publication PMC8642553.
